Results: the supplement of paper PMC10849652
This is one part of the list.

Legend:
Experiment in all cases: log2 fold change, soluble protein after heating vs DMSO (PISA); higher = thermal stabilisation; K562 cells, 10 uM, 30 min; active = over 0.2 and 3.5 SD of the protein, either way, in both replicates (recomputed)
[1] = compound: C1=CC=C(C=C1)[C@H](COC2=CC3=C(C=C2)NC(=O)N3)NC(=O)C4=CC=CN(C4=O)CC5=CC(=C(C=C5)F)F
In short: (§1)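 K562 cells at 2×10^6 cells/mL were given 10 μM compound for 30 min. Aliquots then went through 3 min of heating across 48°C-58°C, were pooled, and were extracted in PBS with 0.5% NP-40 at 4°C, and the supernatant after 21,000xg for 90 min was quantified by TMTpro 16plex LC-MS/MS with channel sums equalised. Thermal stability relative to control samples, from duplicates, is given as log2 fold change.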

[2] = compound: CC1=C(SC2=C1C(=N[C@H](C3=NN=C(N32)C)CC(=O)N)C4=CC=C(C=C4)Cl)C
In short: as §1

[3] = compound: CC1=C2C(=CC=C1)N=C(N(C2=O)C3=CC=CC=C3C)CN4C=NC5=C(N=CN=C54)N
In short: as §1

[4] = compound: Cc1sc2c(c1C)C(c1ccc(Cl)cc1)=N[C@@H](CC(=O)OC(C)(C)C)c1nnc(C)n1-2
In short: as §1

[5] = compound: c1ccc([C@@H]2C[C@H]2NC2CCNCC2)cc1
In short: as §1

[6] = compound: C1=CC2=NC=CN=C2C=C1/C=C/3\C(=O)NC(=O)S3
In short: as §1

ibrutinib = compound: C=CC(=O)N1CCC[C@@H](n2nc(-c3ccc(Oc4ccccc4)cc3)c3c(N)ncnc32)C1 [ibrutinib]
In short: as §1

[7] = compound: CC1=C(C=C(C=C1)NC(=O)C2=CC(=CC=C2)C(C)(C)C#N)NC3=CC4=C(C=C3)N=CN(C4=O)C
In short: as §1

barasertib = compound: CCN(CCCOc1ccc2c(Nc3cc(CC(=O)Nc4cccc(F)c4)[nH]n3)ncnc2c1)CCOP(=O)(O)O [barasertib]
In short: as §1

[8] = compound: CCn1cc(-c2ccnc3[nH]c(-c4cccc(CN(C)C)c4)cc23)c(-c2ccc(NC(=O)N(C)C)cc2)n1
In short: as §1

rosiglitazone = compound: CN(CCOC1=CC=C(C=C1)C[C@H]2C(=O)NC(=O)S2)C3=CC=CC=N3 (racemic) [rosiglitazone]
In short: as §1

[9] = compound: CN1CCC(CNc2ccc3ncc(-c4cccc(OC(F)(F)F)c4)n3n2)CC1
In short: as §1

sotrastaurin = compound: CN1CCN(c2nc(C3=C(c4c[nH]c5ccccc45)C(=O)NC3=O)c3ccccc3n2)CC1 [sotrastaurin]
In short: as §1

filanesib = compound: CON(C)C(=O)N1N=C(c2cc(F)ccc2F)S[C@@]1(CCCN)c1ccccc1 [filanesib]
In short: as §1

pictilisib = compound: CS(=O)(=O)N1CCN(Cc2cc3nc(-c4cccc5[nH]ncc45)nc(N4CCOCC4)c3s2)CC1 [pictilisib]
In short: as §1

[10] = compound: CS(=O)(=O)c1ccc(-c2cnc(N)c(C(=O)Nc3ccccc3)n2)cc1
In short: as §1

gandotinib = compound: Cc1cc(Nc2cc(CN3CCOCC3)c3nc(C)c(Cc4ccc(Cl)cc4F)n3n2)n[nH]1 [gandotinib]
In short: as §1

bafetinib = compound: Cc1ccc(NC(=O)c2ccc(CN3CC[C@H](N(C)C)C3)c(C(F)(F)F)c2)cc1Nc1nccc(-c2cncnc2)n1 [bafetinib]
In short: as §1

[11] = compound: Cc1cccc(CC(=O)N2CCc3c2ccc(-c2cn(C)c4ncnc(N)c24)c3F)n1
In short: as §1

[12] = compound: NC(=O)Nc1cc(-c2cccc(F)c2)sc1C(=O)N[C@H]1CCCNC1
In short: as §1

entinostat = compound: Nc1ccccc1NC(=O)c1ccc(CNC(=O)OCc2cccnc2)cc1 [entinostat]
In short: as §1

vorinostat = compound: O=C(CCCCCCC(=O)Nc1ccccc1)NO [vorinostat]
In short: as §1

Measured: log2 fold change

HMMR isoform 3 (UniProt O75330)
inactive: [1] -0.063 | [2] 0.04 | [3] 0.056 | [4] 0.002 | [5] -0.047

HSDL2 (UniProt Q6YN16)
inactive: [1] -0.081 | [2] 0.077 | [3] 0.048 | [4] -0.041 | [5] -0.004

HNRNPDL (UniProt O14979)
inactive: [1] 0.046 | [2] -0.12 | [3] -0.139 | [4] 0.157 | [5] 0.106

HIGD1A isoform 2 (UniProt Q9Y241)
inactive: [1] 0.083

HSPA1L (UniProt P34931)
inactive: [1] -0.013 | [2] -0.081 | [3] 0.219 | [4] -0.189 | [5] 0.079

HNRNPAB isoform 3 (UniProt Q99729)
inactive: [1] 0.062 | [2] -0.092 | [3] -0.073 | [4] 0.142 | [5] 0.039

HIVEP1 (UniProt P15822)
inactive: [6] 0.05 | [1] 0.022 | ibrutinib -0.041 | [7] 0.052 | barasertib 0.011 | [8] 0.139 | rosiglitazone 0.063 | [9] -0.028 | sotrastaurin -0.007 | filanesib 0.02 | pictilisib -0.046 | [10] 0.015 | gandotinib -0.194 | bafetinib 0.096 | [11] -0.026 | [12] -0.149 | entinostat -0.057 | vorinostat 0.056

IARS (UniProt P41252)
inactive: [1] -0.008 | [2] -0.177 | [3] -0.034 | [4] 0.216 | [5] 0.009

HM13 isoform 2 (UniProt Q8TCT9)
inactive: [1] 0.007 | [2] 0.017 | [3] 0 | [4] -0.006 | [5] 0.002

ICAM1 (UniProt P05362)
inactive: [1] -0.005 | [2] 0.021 | [3] 0.049 | [4] 0.012 | [5] 0.031

ICE1 (UniProt Q9Y2F5)
inactive: [1] -0.05

HIRIP3 (UniProt Q9BW71)
inactive: [1] 0.004 | [2] -0.01 | [3] 0.061 | [4] -0.038 | [5] -0.013

HOXB9 (UniProt P17482)
inactive: [1] -0.027 | [2] 0.127 | [3] 0.128 | [4] -0.043 | [5] 0.033

HOMER1 (UniProt Q86YM7)
inactive: [1] -0.08 | [2] 0.035 | [3] 0.02 | [4] -0.005 | [5] 0.007

HSPG2 (UniProt P98160)
inactive: [1] -0.007 | [2] 0.104 | [3] -0.003 | [4] -0.014 | [5] 0.012

HIP1 (UniProt O00291)
inactive: [1] 0.137 | [2] -0.009 | [3] 0.106 | [4] 0.019 | [5] 0.045

HHEX (UniProt Q03014)
inactive: [1] 0.054 | [2] 0.187 | [3] 0.469 | [4] 0.026 | [5] 0.516

HNRNPA0 (UniProt Q13151)
inactive: [1] 0.231 | [2] -0.054 | [3] -0.05 | [4] -0.352 | [5] 0.109

HNRNPM (UniProt P52272)
inactive: [1] -0.001 | [2] -0.244 | [3] -0.146 | [4] 0.024 | [5] 0.056

HNRNPA1 (UniProt P09651)
inactive: [1] 0.169 | [2] -0.207 | [3] -0.151 | [4] 0.134 | [5] 0.016

HTATSF1 (UniProt O43719)
inactive: [1] -0.149 | [2] 0.031 | [3] 0.105 | [4] 0.01 | [5] 0.029

HSPA8 (UniProt P11142)
inactive: [1] -0.019 | [2] -0.032 | [3] -0.02 | [4] 0.005 | [5] -0.008

HSF1 (UniProt Q00613)
inactive: [1] -0.13 | [2] 0.177 | [3] 0.265 | [4] 0.001 | [5] -0.024

HMOX2 (UniProt P30519)
inactive: [1] 0.024 | [2] 0.035 | [3] 0.169 | [4] 0.047 | [5] -0.036

HNRNPK isoform 2 (UniProt P61978)
inactive: [1] -0.027 | [2] 0.012 | [3] 0.047 | [4] -0.023 | [5] 0.013

HSPA2 (UniProt P54652)
inactive: [1] 0.003

HSPA9 (UniProt P38646)
inactive: [1] 0.012 | [2] 0.017 | [3] 0 | [4] -0.008 | [5] 0.023

HMGN5 (UniProt P82970)
inactive: [1] 0.026 | [2] 0 | [3] 0.007 | [4] -0.111 | [5] 0.036

HSPA8 (UniProt E9PN89)
inactive: [1] 0 | [2] 0.094 | [3] 0.123 | [4] 0.133 | [5] 0.104

HSBP1 (UniProt O75506)
inactive: [1] 0.172

HMGCR isoform 3 (UniProt P04035)
inactive: [1] -0.011 | [2] 0.034 | [3] 0.045 | [4] 0.111 | [5] 0.043

HSPA6 (UniProt P17066)
inactive: [1] 0.015 | [2] -0.017 | [3] 0.003 | [4] -0.032 | [5] 0.022

HSD17B8 (UniProt Q92506)
inactive: [1] -0.002 | [2] 0.022 | [3] -0.025 | [4] 0.027 | [5] 0.068

HMGN2 (UniProt P05204)
inactive: [1] -0.099 | [2] -0.056 | [3] -0.033 | [4] 0.021 | [5] 0.07

IBA57 (UniProt Q5T440)
inactive: [1] -0.018 | [2] 0.068 | [3] 0.057 | [4] 0.003 | [5] -0.007

HINT2 (UniProt Q9BX68)
inactive: [1] 0.004 | [2] 0.067 | [3] 0.114 | [4] -0.203 | [5] 0.078

HM13 (UniProt Q8TCT9)
inactive: [1] 0.028 | [2] 0.108 | [3] 0.005 | [4] -0.065 | [5] 0.017

HMGA1 (UniProt P17096)
inactive: [1] 0.06 | [2] -0.041 | [3] -0.092 | [4] 0.102 | [5] 0.097

Copied from the results shown (11 entries):
HIVEP1 (UniProt P15822)
inactive: [6] 0.05 | [1] 0.022 | ibrutinib -0.041 | [7] 0.052 | barasertib 0.011 | [8] 0.139 | rosiglitazone 0.063 | [9] -0.028 | sotrastaurin -0.007 | filanesib 0.02 | pictilisib -0.046 | [10] 0.015 | gandotinib -0.194 | bafetinib 0.096 | [11] -0.026 | [12] -0.149 | entinostat -0.057 | vorinostat 0.056

IARS (UniProt P41252)
inactive: [1] -0.008 | [2] -0.177 | [3] -0.034 | [4] 0.216 | [5] 0.009

HM13 isoform 2 (UniProt Q8TCT9)
inactive: [1] 0.007 | [2] 0.017 | [3] 0 | [4] -0.006 | [5] 0.002

ICAM1 (UniProt P05362)
inactive: [1] -0.005 | [2] 0.021 | [3] 0.049 | [4] 0.012 | [5] 0.031

ICE1 (UniProt Q9Y2F5)
inactive: [1] -0.05

HIRIP3 (UniProt Q9BW71)
inactive: [1] 0.004 | [2] -0.01 | [3] 0.061 | [4] -0.038 | [5] -0.013

HOXB9 (UniProt P17482)
inactive: [1] -0.027 | [2] 0.127 | [3] 0.128 | [4] -0.043 | [5] 0.033

HOMER1 (UniProt Q86YM7)
inactive: [1] -0.08 | [2] 0.035 | [3] 0.02 | [4] -0.005 | [5] 0.007

HSPG2 (UniProt P98160)
inactive: [1] -0.007 | [2] 0.104 | [3] -0.003 | [4] -0.014 | [5] 0.012

HIP1 (UniProt O00291)
inactive: [1] 0.137 | [2] -0.009 | [3] 0.106 | [4] 0.019 | [5] 0.045

HHEX (UniProt Q03014)
inactive: [1] 0.054 | [2] 0.187 | [3] 0.469 | [4] 0.026 | [5] 0.516

The list goes on:

HIST2H2BF isoform 2 (UniProt Q5QNW6)
inactive: [1] 0.148 | [2] -0.273 | [3] -0.29 | [4] -0.082 | [5] 0.125

HIST2H3A (UniProt Q71DI3)
inactive: [1] 0.068 | [2] -0.153 | [3] -0.266 | [4] -0.221 | [5] 0.192

HK1 isoform 2 (UniProt P19367)
inactive: [1] 0.001 | [2] -0.008 | [3] 0.025 | [4] -0.024 | [5] 0.007

HNRNPD (UniProt Q14103)
inactive: [1] 0.032 | [2] -0.13 | [3] -0.068 | [4] 0.129 | [5] 0.022

ICAM5 (UniProt Q9UMF0)
inactive: [1] -0.071 | [2] -0.094 | [3] 0.085 | [4] -0.103 | [5] 0.05

HMGCLL1 (UniProt Q8TB92)
inactive: [1] 0.043 | [2] -0.045 | [3] 0.017 | [4] 0.01 | [5] -0.019

HNRNPH2 (UniProt P55795)
inactive: [1] -0.096 | [2] -0.037 | [3] 0.097 | [4] -0.035 | [5] -0.003

HMGN5 (UniProt Q5JSK9)
inactive: [1] -0.055 | [2] 0.075 | [3] 0.291 | [4] -0.003 | [5] 0.055

HRC (UniProt P23327)
inactive: [1] 0.026 | [2] -0.042 | [3] 0.055 | [4] 0.014 | [5] 0.033

HSD17B11 (UniProt Q8NBQ5)
inactive: [1] 0.028 | [2] 0.038 | [3] 0 | [4] -0.038 | [5] 0

HNRNPU (UniProt Q00839)
inactive: [1] -0.014 | [2] -0.155 | [3] -0.103 | [4] 0.088 | [5] 0.021

HMGN4 (UniProt O00479)
inactive: [1] 0.065 | [2] -0.041 | [3] -0.362 | [4] 0.012 | [5] -0.112

ICAM2 (UniProt P13598)
inactive: [1] 0.024 | [2] 0.016 | [3] -0.018 | [4] 0.019 | [5] 0

HSPA1A (UniProt P0DMV8)
inactive: [1] -0.031 | [2] -0.029 | [3] -0.058 | [4] 0.004 | [5] -0.007

HSPA4L (UniProt O95757)
inactive: [1] -0.009 | [2] 0.028 | [3] 0.034 | [4] 0 | [5] -0.004
